Results as given in patent publication JP2023110925A.
Positions count from the first letter of the chain named. No constants are given. Whether binding was seen depends on the method and setting. Some results given as binding are weak or reduced against the parent protein; the word gives no strength. One block for each binder: values may come before it.

The chains behind the UniProt entries cited, without tags or fusion partners. Residues count along the entry.
UniProt P05067, residues 672-713: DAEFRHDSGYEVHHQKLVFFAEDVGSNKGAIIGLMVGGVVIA

Legend:
[1] = target: AD疾患患者由来の脳の斑 (amyloid in plaques of human brain sections) (human) (UniProt P05067); experiment: immunohistochemistry on formic acid treated paraffin sections of human brain
[2] = target: アミロイドβ (antigen of the amyloid β ELISA) (UniProt P05067); experiment: amyloid β ELISA, purified antibody
[3] = target: アミロイドβ (antigen of the amyloid β ELISA) (UniProt P05067); experiment: amyloid β ELISA, conditioned medium of transient transfection
ペプチド12(Aβのaa12-20) = target: T1, ペプチド12(Aβのaa12-20); experiment: peptide ELISA, biotinylated peptides on streptavidin plates, hC2 at 200 ng/ml
T1 sequence (peptide, biotinylated): VHHQKLVFF

ペプチド15(Aβのaa 15-23) = ペプチド15(Aβのaa 15-23) (UniProt P05067); experiment: as above
ペプチド14(Aβのaa 14-22) = ペプチド14(Aβのaa 14-22) (UniProt P05067); experiment: as above
ペプチド16(Aβのaa 16-24) = ペプチド16(Aβのaa 16-24) (UniProt P05067); experiment: as above

B2: C2 HuVH2/HuVK1 (purified) (antibody, human IgG4 S228P, kappa, name in Kabat numbering, V domains shown)
VH: EVQLVESGGGLVQPGGSLRLSCAASGFTFSSYGMSWVRQAPGKGLEWVASINSNGGSTYYPDSVKGRFTISRDNAKNSLYLQMNSLRAEDTAVYYCASGDYWGQGTTVTVSS
VL: DIVMTQSPLSLPVTPGEPASISCRSSQSLVYSNGDTYLHWYLQKPGQSPQLLIYKVSNRFSGVPDRFSGSGSGTDFTLKISRVEAEDVGVYYCSQSTHVPWTFGQGTKVEIKR
- binding [2]: binds

B3: C2 HuVH AF バージョン2 + キメラC2カッパ鎖 (transient) (antibody, name in Kabat numbering, V domains shown)
VH: B2 VH
VL: DVVMTQTPLSLPVSLGDQASISCRSSQSLVYSNGDTYLHWYLQKPGQSPKLLIYKVSNRFSGVPDRFSGSGSGTDFTLKISRVEAEDLGVYFCSQSTHVPWTFGGGTKLEIK
- binding [3]: binds

The next lines start with the values.

- binding [1]: binds
- binding [2]: binds
B1: C2 ChVH AF/ChVK抗体 (purified from NS0) (antibody, human IgG4 S228P, kappa, V domains shown)
VH: EVQLVESGGGLVQPGGSLKLSCAASGFTFSSYGMSWVRQTPDKRLELVASINSNGGSTYYPDSVKGRFTISRDNAKNTLYLQMSSLKSEDTAMYYCASGDYWGQGSTLTVSS
VL: DVVMTQTPLSLPVSLGDQASISCRSSQSLVYSNGDTYLHWYLQKPGQSPKLLIYKVSNRFSGVPDRFSGSGSGTDFTLKISRVEAEDLGVYFCSQSTHVPWTFGGGTKLEIKR

- binding (ペプチド12(Aβのaa12-20)): binds
- binding (ペプチド15(Aβのaa 15-23)): binds
- binding (ペプチド14(Aβのaa 14-22)): binds
- binding (ペプチド16(Aβのaa 16-24)): binds
B4: ヒト化抗ヒトアミロイドβモノクローナル抗体hC2 (antibody, human IgG4 S228P, kappa, V domains shown)
VH: B2 VH with W47L
VL: B2 VL
